Laboratory results as given in publication doi:10.1101/2025.06.03.657657.
No constants are given. Whether binding was seen depends on the method and setting. In cells and extracts the contact can be indirect. Sequences can lack the tags named with a protein.

Tests used:
[1] = target: PoptrGNOMa-YFP (Populus trichocarpa); experiment: co-IP
[2] = target: PoptrGNOMb-YFP (Populus trichocarpa); experiment: co-IP

B1: AtGNL1-Myc (protein, UniProt Q9FLY5 1-1443)
chain: MGYQNHPSGSNSFHGEFKRCHSKPSKGAVASMINSEIGAVLAVMRRNVRWGVRYIADDDQLEHSLIHSLKELRKQIFSWQSNWQYVDPRLYIQPFLDVILSDETGAPITGVALSSVYKILTLEVFTLETVNVGEAMHIIVDAVKSCRFEVTDPASEEVVLMKILQVLLACVKSKASNGLSNQDICTIVNTCLRVVHQSSSKSELLQRIARHTMHELIRCIFSQLPFISPLANECELHVDNKVGTVDWDPNSGEKRVENGNIASISDTLGTDKDDPSSEMVIPETDLRNDEKKTEVSDDLNAAANGENAMMAPYGIPCMVEIFHFLCTLLNVGENGEVNSRSNPIAFDEDVPLFALGLINSAIELGGPSFREHPKLLTLIQDDLFCNLMQFGMSMSPLILSTVCSIVLNLYLNLRTELKVQLEAFFSYVLLRIAQSKHGSSYQQQEVAMEALVDLCRQHTFIAEVFANFDCDITCSNVFEDVSNLLSKNAFPVNGPLSAMHILALDGLISMVQGMAERVGEELPASDVPTHEERYEEFWTVRCENYGDPNFWVPFVRKVKHIKKKLMLGADRFNRDPNKGLQYLQGVHLLPEKLDPKSVACFFRYTCGLDKNVMGDFLGNHDQFCIQVLHEFAKTFDFQNMNLATALRLFVGTFKLSGEAQKIHRVLEAFSERYYEQSPHILIDKDAAFVLAYSIILLNTDQHNAQVKTRMTEEDFIRNNRTINGGADLPREYLSEIYHSIRHSEIQMDEDKGTGFQLMTASRWISVIYKSKETSPYIQCDAASHLDRDMFYIVSGPTIAATSVVFEQAEQEDVLRRCIDGLLAIAKLSAYYHLNSVLDDLVVSLCKFTPFFAPLSADEAVLVLGEDARARMATEAVFLIANKYGDYISAGWKNILECVLSLNKLHILPDHIASDAADDPELSTSNLEQEKPSANPVPVVSQSQPSAMPRKSSSFIGRFLLSFDSEETKPLPSEEELAAYKHARGIVKDCHIDSIFSDSKFLQAESLQQLVNSLIRASGKDEASSVFCLELLIAVTLNNRDRILLIWPTVYEHILGIVQLTLTPCTLVEKAVFGVLKICQRLLPYKENLTDELLKSLQLVLKLKAKVADAYCERIAQEVVRLVKANASHVRSRTGWRTIISLLSITARHPEASEAGFEALRFIMSEGAHLLPSNYELCLDAASHFAESRVGEVDRSISAIDLMSNSVFCLARWSQEAKNSIGETDAMMKLSEDIGKMWLKLVKNLKKVCLDQRDEVRNHAISMLQRAIAGADGIMLPQPLWFQCFDSAVFILLDDVLTFSIENSRKTLKKTVEETLVLATKLMSKAFLQSLQDISQQPSFCRLWVGVLNRLETYMSTEFRGKRSEKVNELIPELLKNTLLVMKATGVLLPGDDIGSDSFWQLTWLHVNKISPSLQSEVFPQEELDQFQRRNAKPEDPPVPGNEV
binding [1]: no binding
binding [2]: no binding
